Cleaved PARP after 72 h of treatment

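The test systems are human melanoma cell lines, treated with a pair of drugs for 72 h and then stained and imaged. Each value is the cleaved-PARP-positive fraction of nuclei relative to DMSO-treated wells, in %, so that 100 equals the control and higher values mean more apoptosis. Concentrations were fixed for each drug; these are the higher of two levels. No replicate spread is given; individual values may be noisy. The marker varies much from line to line, for technical or biological reasons.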 Only some of the drugs and lines screened are listed, without regard to their results. A dash means that no value is listed here.

Drugs:
BI-78D3, 1 µM: O=c1[nH]nc(Sc2ncc([N+](=O)[O-])s2)n1-c1ccc2c(c1)OCCO2
ENMD-2076, 0.2 µM: Cc1cc(Nc2cc(N3CCN(C)CC3)nc(/C=C/c3ccccc3)n2)n[nH]1
vorinostat, 0.4 µM: O=C(CCCCCCC(=O)Nc1ccccc1)NO
GSK650394, 0.8 µM: O=C(O)c1ccc(-c2c[nH]c3ncc(-c4ccccc4)cc23)cc1C1CCCC1
perifosine, 2 µM: CCCCCCCCCCCCCCCCCCOP(=O)([O-])OC1CC[N+](C)(C)CC1
pazopanib, 2 µM: Cc1ccc(Nc2nccc(N(C)c3ccc4c(C)n(C)nc4c3)n2)cc1S(N)(=O)=O
PF-04217903, 5 µM: OCCn1cc(-c2cnc3nnn(Cc4ccc5ncccc5c4)c3n2)cn1
erlotinib, 4 µM: C#Cc1cccc(Nc2ncnc3cc(OCCOC)c(OCCOC)cc23)c1
stibogluconate, 10 µM: O=C(O)[C@@H]1[O][Sb](=[O])([O][Sb]2(=[O])[O][C@H]([C@H](O)CO)[C@H](O)[C@H](C(=O)O)[O]2)[O][C@H]([C@H](O)CO)[C@@H]1O (stereo not given in full)

Combination,UACC-62,WM3526,RVH-421,COLO 829,RPMI-7951,WM1745,MEL-HO,SK-MEL-5,LB2518-MEL,WM451Lu,COLO 792,COLO 800
stibogluconate and BI-78D3,184,65.6,26.3,249,106,108,137,147,139,98.3,40.1,174
PF-04217903 and GSK650394,107,211,178,79.1,252,197,90.4,46.8,111,117,319,112
vorinostat and BI-78D3,141,40.6,30.3,73.6,106,76.8,71.3,74.9,148,340,118,144
GSK650394 and vorinostat,166,138,54.8,105,126,134,208,85.2,298,155,159,124
vorinostat and PF-04217903,149,156,98.0,143,145,79.3,146,160,-,75.9,154,163
ENMD-2076 and erlotinib,527,369,390,145,50.0,247,83.3,1320,150,102,348,100
perifosine and pazopanib,291,318,430,214,149,101,259,91.6,175,120,86.0,153
pazopanib and ENMD-2076,343,92.9,148,66.2,175,133,97.4,144,94.6,110,111,161
stibogluconate and PF-04217903,117,195,132,90.0,105,118,73.5,73.2,112,46.8,124,195
stibogluconate and perifosine,125,46.4,109,54.5,111,73.3,70.5,165,39.3,122,95.8,184
vorinostat and stibogluconate,154,175,109,95.2,136,81.6,87.2,203,121,39.1,62.8,103
erlotinib and stibogluconate,261,205,199,210,115,148,200,156,213,79.6,427,83.1
perifosine and ENMD-2076,289,111,93.2,97.8,655,135,238,287,43.1,133,93.9,256
BI-78D3 and perifosine,190,44.6,64.1,118,276,102,69.3,81.1,66.0,87.0,90.3,75.5
vorinostat and pazopanib,129,173,119,180,92.1,107,145,74.0,189,155,75.7,85.1
BI-78D3 and erlotinib,194,168,94.5,177,99.4,172,95.7,364,187,355,137,106
stibogluconate and pazopanib,95.4,131,267,110,70.7,107,185,230,129,72.2,68.0,171
perifosine and erlotinib,341,155,160,60.9,171,125,51.2,322,311,80.4,179,101
ENMD-2076 and vorinostat,175,209,82.0,110,135,203,41.0,157,173,156,103,184
PF-04217903 and perifosine,256,148,64.8,303,855,397,182,148,266,254,2770,153
PF-04217903 and pazopanib,127,84.8,51.2,136,105,78.0,77.5,61.8,341,219,101,40.6
erlotinib and vorinostat,137,220,143,79.1,235,98.6,86.7,195,366,71.2,295,229
erlotinib and GSK650394,87.6,237,84.7,308,75.8,227,102,203,170,112,286,131
GSK650394 and stibogluconate,74.6,130,65.9,110,81.6,52.9,90.3,380,106,129,86.1,139
erlotinib and pazopanib,223,723,212,114,103,143,63.4,221,502,270,157,308
PF-04217903 and BI-78D3,124,127,90.4,126,43.4,111,69.0,40.3,114,217,96.1,132
pazopanib and BI-78D3,130,165,107,121,29.5,93.2,121,282,80.1,102,95.9,244
PF-04217903 and ENMD-2076,150,411,36.7,118,38.9,318,64.4,66.8,193,26.0,154,35.7
perifosine and GSK650394,83.8,169,112,177,218,635,227,65.5,78.2,146,151,41.0
stibogluconate and ENMD-2076,193,121,154,117,292,138,159,24.0,83.7,144,50.9,161

2 of the entries, repeated:

Combination	UACC-62	WM3526	RVH-421	COLO 829	RPMI-7951	WM1745	MEL-HO	SK-MEL-5	LB2518-MEL	WM451Lu	COLO 792	COLO 800
perifosine and erlotinib	341	155	160	60.9	171	125	51.2	322	311	80.4	179	101
erlotinib and GSK650394	87.6	237	84.7	308	75.8	227	102	203	170	112	286	131

Source: doi:10.1371/journal.pone.0140310, primary screening data, rounded.